Assay results published in US20220340849A1, “BRAIN-CHIP MODELING NEURODEGENERATION AND NEUROINFLAMMATION IN PARKINSON'S DISEASE” (EMULATE, INC., priority 2019, published 2022).

Tests used:
[1] = system: cells of brain parenchyma (Brain Channel); assay: RNA-seq differential gene expression, brain channel, TNFα exposed vs Healthy Brain-Chips; format: cell-based, human
[2] = system: endothelial cells (Vascular Channel); assay: RNA-seq differential gene expression, vascular channel, TNFα exposed vs Healthy Brain-Chips; format: cell-based, human
[3] = Neuroinflammation (TNFα in brain channel) vs Healthy Brain-Chips
[4] = Systemic Inflammation (TNFα in vascular channel) vs Healthy Brain-Chips

TNF-α
# down-regulated [1, 3]: 373 | # up-regulated [1, 3]: 801 | # DE Genes ([1]; Neuroinflammation (TNFα in brain channel) vs Healthy Brain-Chips, adj.p<0.01, |log2FC|>1): 1174 | # DE Genes [1, 4]: 528 | # down-regulated [1, 4]: 55 | # up-regulated [1, 4]: 473 | # DE Genes [2, 3]: 387 | # DE Genes [2, 4]: 422 | # down-regulated [2, 4]: 51 | # up-regulated [2, 4]: 371
